Test results from the supplement of paper PMC10849652.
Some of the results follow.

Protein sequences, listed by entry. Tags and fused reporters are not part of them. Lines headed by an entry give the natural chain unless they say otherwise; changes in a name come on top.
UniProt O43414: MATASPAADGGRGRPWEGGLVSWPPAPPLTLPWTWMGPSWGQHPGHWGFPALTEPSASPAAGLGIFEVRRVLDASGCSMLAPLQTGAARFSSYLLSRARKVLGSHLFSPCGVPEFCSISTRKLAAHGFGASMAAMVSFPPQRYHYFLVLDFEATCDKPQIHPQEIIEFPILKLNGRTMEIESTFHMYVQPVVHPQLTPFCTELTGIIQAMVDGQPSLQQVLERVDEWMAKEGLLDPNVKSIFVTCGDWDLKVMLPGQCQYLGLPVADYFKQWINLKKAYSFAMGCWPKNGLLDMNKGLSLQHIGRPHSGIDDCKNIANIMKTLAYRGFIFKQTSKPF
UniProt Q9NQT5, whole entry, looked up: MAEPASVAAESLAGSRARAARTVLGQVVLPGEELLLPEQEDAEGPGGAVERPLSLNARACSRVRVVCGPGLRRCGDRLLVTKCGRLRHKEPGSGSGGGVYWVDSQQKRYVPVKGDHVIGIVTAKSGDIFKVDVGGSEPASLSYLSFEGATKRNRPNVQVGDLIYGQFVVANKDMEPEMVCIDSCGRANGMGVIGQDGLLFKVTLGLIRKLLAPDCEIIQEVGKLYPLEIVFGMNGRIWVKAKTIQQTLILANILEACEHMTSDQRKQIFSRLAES
UniProt Q8TBG4: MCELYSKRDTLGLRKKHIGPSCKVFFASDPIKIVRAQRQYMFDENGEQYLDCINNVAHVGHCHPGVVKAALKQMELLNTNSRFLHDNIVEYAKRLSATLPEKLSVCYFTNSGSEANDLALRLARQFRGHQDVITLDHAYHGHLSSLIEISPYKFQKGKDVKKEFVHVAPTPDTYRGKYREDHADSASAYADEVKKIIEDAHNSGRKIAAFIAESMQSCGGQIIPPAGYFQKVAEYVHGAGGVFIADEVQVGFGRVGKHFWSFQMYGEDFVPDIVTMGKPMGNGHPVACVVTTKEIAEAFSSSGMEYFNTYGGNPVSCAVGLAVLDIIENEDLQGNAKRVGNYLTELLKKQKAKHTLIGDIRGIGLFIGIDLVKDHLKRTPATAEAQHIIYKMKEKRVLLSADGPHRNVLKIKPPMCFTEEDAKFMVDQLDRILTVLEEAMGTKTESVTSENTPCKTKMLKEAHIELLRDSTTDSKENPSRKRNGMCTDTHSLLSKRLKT
UniProt Q96A26: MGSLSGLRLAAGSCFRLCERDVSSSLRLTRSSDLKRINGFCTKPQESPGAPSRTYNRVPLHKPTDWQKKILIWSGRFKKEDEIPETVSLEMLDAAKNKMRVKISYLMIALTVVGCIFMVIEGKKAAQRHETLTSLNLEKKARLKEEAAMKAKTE
UniProt Q01844: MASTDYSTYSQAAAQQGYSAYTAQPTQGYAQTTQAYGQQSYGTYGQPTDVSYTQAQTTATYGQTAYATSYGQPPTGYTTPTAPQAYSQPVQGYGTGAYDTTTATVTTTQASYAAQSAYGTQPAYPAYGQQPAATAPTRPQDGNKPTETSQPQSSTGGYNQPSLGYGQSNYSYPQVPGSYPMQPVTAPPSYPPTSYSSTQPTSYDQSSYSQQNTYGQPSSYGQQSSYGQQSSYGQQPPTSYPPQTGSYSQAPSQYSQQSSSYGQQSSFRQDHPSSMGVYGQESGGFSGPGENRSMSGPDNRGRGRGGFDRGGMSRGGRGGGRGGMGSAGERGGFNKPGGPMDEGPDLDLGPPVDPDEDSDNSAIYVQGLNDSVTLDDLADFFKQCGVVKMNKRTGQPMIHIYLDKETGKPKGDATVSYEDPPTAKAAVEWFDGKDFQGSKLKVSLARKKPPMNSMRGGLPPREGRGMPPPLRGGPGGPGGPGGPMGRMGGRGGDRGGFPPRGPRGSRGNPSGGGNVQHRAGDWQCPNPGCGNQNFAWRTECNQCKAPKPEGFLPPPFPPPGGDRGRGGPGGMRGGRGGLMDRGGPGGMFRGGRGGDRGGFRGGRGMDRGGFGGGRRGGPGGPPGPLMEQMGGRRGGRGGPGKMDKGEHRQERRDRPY
UniProt Q9Y282: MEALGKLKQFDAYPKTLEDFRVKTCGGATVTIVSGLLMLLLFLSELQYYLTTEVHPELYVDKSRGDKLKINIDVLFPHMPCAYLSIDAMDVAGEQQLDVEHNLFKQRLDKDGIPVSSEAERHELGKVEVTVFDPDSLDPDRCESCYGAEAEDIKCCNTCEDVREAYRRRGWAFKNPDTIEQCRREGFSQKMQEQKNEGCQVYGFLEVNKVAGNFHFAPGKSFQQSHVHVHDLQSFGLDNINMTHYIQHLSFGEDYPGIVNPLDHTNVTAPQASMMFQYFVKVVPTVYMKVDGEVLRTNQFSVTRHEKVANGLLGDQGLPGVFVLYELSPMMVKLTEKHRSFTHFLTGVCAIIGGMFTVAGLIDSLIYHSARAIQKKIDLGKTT
UniProt Q96RT1: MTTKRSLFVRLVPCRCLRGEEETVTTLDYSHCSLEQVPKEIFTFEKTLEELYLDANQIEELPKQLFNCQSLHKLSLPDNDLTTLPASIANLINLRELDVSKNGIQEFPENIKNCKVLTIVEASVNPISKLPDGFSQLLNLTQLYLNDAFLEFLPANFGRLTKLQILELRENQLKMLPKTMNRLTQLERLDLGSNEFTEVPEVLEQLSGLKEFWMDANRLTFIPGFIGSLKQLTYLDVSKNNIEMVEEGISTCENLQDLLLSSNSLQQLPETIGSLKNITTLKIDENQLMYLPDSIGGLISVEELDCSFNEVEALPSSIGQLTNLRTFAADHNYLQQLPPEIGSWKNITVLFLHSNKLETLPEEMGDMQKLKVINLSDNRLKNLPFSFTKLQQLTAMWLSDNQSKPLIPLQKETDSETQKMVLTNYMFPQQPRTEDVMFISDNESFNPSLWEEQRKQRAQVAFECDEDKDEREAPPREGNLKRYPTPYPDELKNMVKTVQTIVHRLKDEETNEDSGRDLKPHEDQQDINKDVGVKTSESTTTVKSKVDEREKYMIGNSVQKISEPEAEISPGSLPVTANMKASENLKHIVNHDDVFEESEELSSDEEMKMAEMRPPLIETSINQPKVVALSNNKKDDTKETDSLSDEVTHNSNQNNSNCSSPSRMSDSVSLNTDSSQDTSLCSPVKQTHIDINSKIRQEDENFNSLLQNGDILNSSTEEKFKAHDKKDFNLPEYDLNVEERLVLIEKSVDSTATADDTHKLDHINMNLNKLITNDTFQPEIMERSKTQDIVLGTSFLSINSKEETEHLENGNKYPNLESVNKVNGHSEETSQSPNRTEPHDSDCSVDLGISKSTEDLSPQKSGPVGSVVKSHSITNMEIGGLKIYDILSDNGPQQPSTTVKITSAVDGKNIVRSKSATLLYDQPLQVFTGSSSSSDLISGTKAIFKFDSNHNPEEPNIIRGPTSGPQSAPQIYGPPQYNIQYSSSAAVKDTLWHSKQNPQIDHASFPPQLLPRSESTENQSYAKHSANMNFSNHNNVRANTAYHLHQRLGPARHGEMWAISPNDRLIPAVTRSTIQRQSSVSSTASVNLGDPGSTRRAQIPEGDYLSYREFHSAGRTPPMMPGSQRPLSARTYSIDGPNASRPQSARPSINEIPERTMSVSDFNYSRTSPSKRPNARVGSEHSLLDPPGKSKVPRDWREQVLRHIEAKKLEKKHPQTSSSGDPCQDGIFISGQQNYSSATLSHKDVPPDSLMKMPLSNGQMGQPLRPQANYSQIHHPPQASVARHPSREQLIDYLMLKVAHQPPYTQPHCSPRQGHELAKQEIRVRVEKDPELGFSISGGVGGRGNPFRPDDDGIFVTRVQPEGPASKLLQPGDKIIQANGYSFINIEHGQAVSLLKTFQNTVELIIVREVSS
UniProt Q96B26, whole entry, looked up: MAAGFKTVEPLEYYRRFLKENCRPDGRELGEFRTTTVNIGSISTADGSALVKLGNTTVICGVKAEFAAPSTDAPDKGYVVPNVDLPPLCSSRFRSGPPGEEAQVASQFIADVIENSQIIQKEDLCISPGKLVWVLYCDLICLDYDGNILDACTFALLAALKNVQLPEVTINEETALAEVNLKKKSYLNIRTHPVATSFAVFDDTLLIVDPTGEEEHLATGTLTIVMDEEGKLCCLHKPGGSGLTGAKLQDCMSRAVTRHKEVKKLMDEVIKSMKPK
UniProt P16930: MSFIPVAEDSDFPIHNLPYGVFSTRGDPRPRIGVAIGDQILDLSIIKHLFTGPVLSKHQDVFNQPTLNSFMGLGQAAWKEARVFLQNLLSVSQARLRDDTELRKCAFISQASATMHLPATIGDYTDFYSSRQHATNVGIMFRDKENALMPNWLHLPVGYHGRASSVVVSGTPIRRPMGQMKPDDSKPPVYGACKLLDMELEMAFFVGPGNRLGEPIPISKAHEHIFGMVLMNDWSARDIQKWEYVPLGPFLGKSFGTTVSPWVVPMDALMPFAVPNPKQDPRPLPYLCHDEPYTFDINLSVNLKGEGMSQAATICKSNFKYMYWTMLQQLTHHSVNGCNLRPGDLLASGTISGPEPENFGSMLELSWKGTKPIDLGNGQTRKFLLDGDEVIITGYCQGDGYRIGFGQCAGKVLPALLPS
UniProt Q96GK7: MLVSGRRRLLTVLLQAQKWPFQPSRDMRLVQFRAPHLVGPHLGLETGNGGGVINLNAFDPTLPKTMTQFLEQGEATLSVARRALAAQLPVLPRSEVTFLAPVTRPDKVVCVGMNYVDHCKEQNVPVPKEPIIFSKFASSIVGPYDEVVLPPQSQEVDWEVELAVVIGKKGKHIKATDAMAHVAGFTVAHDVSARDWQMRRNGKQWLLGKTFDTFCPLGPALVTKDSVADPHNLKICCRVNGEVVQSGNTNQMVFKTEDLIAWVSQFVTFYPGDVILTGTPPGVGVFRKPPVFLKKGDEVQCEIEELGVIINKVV
UniProt Q9Y6I3: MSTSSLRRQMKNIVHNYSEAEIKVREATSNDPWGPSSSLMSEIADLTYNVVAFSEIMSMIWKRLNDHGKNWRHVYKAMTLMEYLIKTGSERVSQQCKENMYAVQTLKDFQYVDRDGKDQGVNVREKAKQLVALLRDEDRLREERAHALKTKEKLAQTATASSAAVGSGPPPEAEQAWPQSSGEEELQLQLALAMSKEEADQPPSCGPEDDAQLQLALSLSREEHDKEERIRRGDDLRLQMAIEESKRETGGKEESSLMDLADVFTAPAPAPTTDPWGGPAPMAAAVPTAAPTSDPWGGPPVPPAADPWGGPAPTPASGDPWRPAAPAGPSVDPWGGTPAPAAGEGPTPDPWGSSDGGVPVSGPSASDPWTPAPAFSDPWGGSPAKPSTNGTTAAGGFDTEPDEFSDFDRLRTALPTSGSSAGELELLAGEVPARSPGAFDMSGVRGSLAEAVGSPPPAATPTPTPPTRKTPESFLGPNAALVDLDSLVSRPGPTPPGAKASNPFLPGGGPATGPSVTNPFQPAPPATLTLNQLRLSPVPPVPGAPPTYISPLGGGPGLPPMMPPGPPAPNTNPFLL
UniProt Q01469, whole entry, looked up: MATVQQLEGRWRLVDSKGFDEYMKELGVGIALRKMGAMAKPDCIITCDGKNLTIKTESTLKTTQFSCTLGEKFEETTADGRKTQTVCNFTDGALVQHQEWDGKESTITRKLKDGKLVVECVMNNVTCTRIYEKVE
UniProt P16422: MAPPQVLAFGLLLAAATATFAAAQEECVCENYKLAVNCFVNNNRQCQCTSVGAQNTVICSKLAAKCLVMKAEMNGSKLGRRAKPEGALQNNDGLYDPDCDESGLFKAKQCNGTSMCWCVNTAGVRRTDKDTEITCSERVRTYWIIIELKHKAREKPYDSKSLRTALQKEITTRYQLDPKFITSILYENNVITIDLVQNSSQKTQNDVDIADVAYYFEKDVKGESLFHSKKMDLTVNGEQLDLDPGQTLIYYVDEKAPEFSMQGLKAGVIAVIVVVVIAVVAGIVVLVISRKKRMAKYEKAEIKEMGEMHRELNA
UniProt Q96DZ1: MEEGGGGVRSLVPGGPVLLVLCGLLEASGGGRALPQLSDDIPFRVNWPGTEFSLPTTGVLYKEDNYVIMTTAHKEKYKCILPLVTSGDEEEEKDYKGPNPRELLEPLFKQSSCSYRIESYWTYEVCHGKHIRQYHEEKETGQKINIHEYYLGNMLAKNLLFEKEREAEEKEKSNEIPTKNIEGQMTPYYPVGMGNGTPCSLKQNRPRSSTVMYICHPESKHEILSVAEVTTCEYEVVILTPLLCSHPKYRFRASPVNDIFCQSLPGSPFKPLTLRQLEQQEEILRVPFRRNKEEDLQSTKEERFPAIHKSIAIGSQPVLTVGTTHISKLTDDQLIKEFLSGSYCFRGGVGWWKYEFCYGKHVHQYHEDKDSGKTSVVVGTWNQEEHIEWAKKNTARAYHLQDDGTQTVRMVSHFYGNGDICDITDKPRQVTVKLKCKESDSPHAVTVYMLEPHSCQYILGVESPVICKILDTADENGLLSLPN

Assays:
Assay in all cases: log2 fold change, soluble protein after heating vs DMSO (PISA); higher = thermal stabilisation; K562 cells, 10 uM, 30 min; active = over 0.2 and 3.5 SD of the protein, either way, in both replicates (recomputed)
[1] = compound: CC[C@@H]1C(=O)N(C)c2cnc(Nc3ccc(C(=O)NC4CCN(C)CC4)cc3OC)nc2N1C1CCCC1
In short: (§1)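 K562 cells at 2×10^6 cells/mL were exposed to 10 μM compound for 30 min, then aliquots were heated for 3 min across 48°C-58°C, pooled, and extracted in PBS containing 0.5% NP-40 at 4°C. The supernatant after 21,000xg for 90 min was taken as soluble protein and measured by TMTpro 16plex LC-MS/MS with channel sums equalised. Thermal stability is reported relative to control samples, with values from duplicates. Fold changes are given on a log2 scale.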

[2] = compound: CC[C@@H]1C(=O)N(C)c2cnc(Nc3ccc(C(=O)N[C@H]4CC[C@H](N5CCN(CC6CC6)CC5)CC4)cc3OC)nc2N1C(C)C [volasertib]
In short: as §1

[3] = compound: CC[C@H](C)N1C=C(C2=C(C=C(C=C21)C3=CN=C(C=C3)N4CCNCC4)C(=O)NCC5=C(C=C(NC5=O)C)C)C
In short: as §1

[4] = compound: CC[C@H](C)[C@@H](C(=O)N[C@@H]([C@@H](C)O)C(=O)N[C@@H](CC(C)C)C(=O)[C@]1(CO1)C)NC(=O)[C@H]([C@@H](C)CC)N(C)C(=O)C [epoxomicin]
In short: as §1

[5] = compound: CCn1c(C(=O)N(C2CC2)C2CC2)cc2c3c(ncn3C)c(Nc3cc(C)n(C)n3)nc21
In short: as §1

[6] = compound: CCn1cc(-c2ccnc3[nH]c(-c4cccc(CN(C)C)c4)cc23)c(-c2ccc(NC(=O)N(C)C)cc2)n1
In short: as §1

[7] = compound: CN(C)CC(=O)Nc1ccc2[nH]c(=O)c3ccccc3c2c1
In short: as §1

[8] = compound: CN(CCOC1=CC=C(C=C1)C[C@H]2C(=O)NC(=O)S2)C3=CC=CC=N3 (racemic) [rosiglitazone]
In short: as §1

[9] = compound: CN1C2=C(C3=C1C(=O)N(N=C3)CC4=CC(=CC=C4)N)SC(=C2)S(=O)C
In short: as §1

[10] = compound: CN1CCC(CNc2ccc3ncc(-c4cccc(OC(F)(F)F)c4)n3n2)CC1
In short: as §1

[11] = compound: CN1CCN(CCOc2cc(OC3CCOCC3)c3c(Nc4c(Cl)ccc5c4OCO5)ncnc3c2)CC1 [saracatinib]
In short: as §1

[12] = compound: CN1CCN(c2nc(C3=C(c4c[nH]c5ccccc45)C(=O)NC3=O)c3ccccc3n2)CC1 [sotrastaurin]
In short: as §1

[13] = compound: CN1CC[C@H](c2c(O)cc(O)c3c(=O)cc(-c4ccccc4Cl)oc23)[C@H](O)C1 [alvocidib]
In short: as §1

[14] = compound: CN1CCc2c(c3ccccc3n2Cc2ccc(C(=O)NO)cc2)C1 [Tubastatin A]
In short: as §1

[15] = compound: CNC(=O)C1=CC=CC=C1NC2=NC(=NC=C2Cl)NC3=C(C=C(C=C3)N4CCOCC4)OC
In short: as §1

[16] = compound: CNC(=O)c1ccc(Nc2ncc(C(F)(F)F)c(NCc3nccnc3N(C)S(C)(=O)=O)n2)cc1 [defactinib]
In short: as §1

[17] = compound: CNCc1ccc(-c2[nH]c3cc(F)cc4c3c2CCNC4=O)cc1 [rucaparib]
In short: as §1

[18] = compound: CNc1nc(-c2ccc3c(N)n[nH]c3c2)cc(N2C[C@@H](C(=O)NC3CCCCC3)CC[C@H]2C)n1
In short: as §1

[19] = compound: COC(=O)N[C@@H](C)CNc1nccc(-c2cn(C(C)C)nc2-c2cc(Cl)cc(NS(C)(=O)=O)c2F)n1 [encorafenib]
In short: as §1

[20] = compound: COC(=O)[C@H](CCSC)NC(=O)C1=C(C=C(C=C1)NC[C@H](CS)N)C2=CC=CC=C2
In short: as §1

Measured: log2 fold change

ERI3 (UniProt O43414)
inactive: [1] 0.032 | [2] 0.072 | [3] 0.024 | [4] 0.004 | [5] -0.003 | [6] -0.126 | [7] 0.047 | [8] 0.004 | [9] -0.006 | [10] -0.012 | [11] -0.003 | [12] 0.012 | [13] -0.032 | [14] 0.013 | [15] 0.021 | [16] -0.013 | [17] -0.146 | [18] -0.056 | [19] -0.007 | [20] 0.047

EXOSC3 (UniProt Q9NQT5)
inactive: [1] 0.001 | [2] 0.036 | [3] -0.004 | [4] -0.019 | [5] -0.006 | [6] -0.027 | [7] 0.025 | [8] 0.033 | [9] 0.007 | [10] 0.078 | [11] -0.032 | [12] -0.022 | [13] -0.005 | [14] 0 | [15] -0.032 | [16] -0.029 | [17] 0.04 | [18] 0.051 | [19] 0.023 | [20] -0.062

ETNPPL (UniProt Q8TBG4)
inactive: [1] -0.013 | [2] 0.123 | [3] -0.099 | [4] -0.263 | [5] 0.125 | [6] 0.148 | [7] -0.207 | [8] 0.116 | [9] 0.15 | [10] 0.098 | [11] 0.098 | [12] 0.33 | [13] 0.021 | [14] -0.081 | [15] 0.102 | [16] 0 | [17] -0.185 | [18] -0.096 | [19] -0.025 | [20] 0.172

FAM162A (UniProt Q96A26)
inactive: [1] -0.036 | [2] 0.092 | [3] -0.055 | [4] 0.003 | [5] -0.035 | [6] 0.028 | [7] 0.019 | [8] 0.014 | [9] -0.074 | [10] 0.018 | [11] -0.058 | [12] 0.057 | [13] -0.043 | [14] 0.107 | [15] 0.02 | [16] -0.02 | [17] -0.077 | [18] -0.05 | [19] -0.045 | [20] -0.036

EWSR1 isoform 5 (UniProt Q01844)
inactive: [1] 0.016 | [2] 0.008 | [3] -0.024 | [4] -0.015 | [5] 0.02 | [6] 0.059 | [7] -0.011 | [8] -0.041 | [9] 0 | [10] 0.071 | [11] 0.039 | [12] 0.024 | [13] 0.041 | [14] -0.037 | [15] -0.03 | [16] 0.04 | [17] 0.04 | [18] -0.071 | [19] -0.042 | [20] 0.052

ERVK3-1, A0A0U1RQV1
inactive: [1] 0.029 | [2] -0.012 | [3] 0 | [4] 0.372 | [5] 0.004 | [6] 0.046 | [7] -0.049 | [8] 0.02 | [9] -0.039 | [10] -0.002 | [11] 0.023 | [12] 0.039 | [13] -0.036 | [14] 0.016 | [15] -0.042 | [16] -0.018 | [17] -0.003 | [18] -0.026 | [19] -0.105 | [20] 0.064

ERGIC3 isoform 3 (UniProt Q9Y282)
inactive: [1] -0.04 | [2] -0.025 | [3] -0.012 | [4] 0.006 | [5] 0.02 | [6] 0.033 | [7] -0.009 | [8] 0.012 | [9] -0.012 | [10] -0.14 | [11] 0.084 | [12] 0.027 | [13] -0.001 | [14] -0.039 | [15] -0.039 | [16] -0.003 | [17] -0.027 | [18] -0.02 | [19] -0.019 | [20] 0.011

ERBIN isoform 8 (UniProt Q96RT1)
inactive: [1] 0.007 | [2] 0.064 | [3] 0.083 | [4] -0.026 | [5] 0.002 | [6] -0.094 | [7] -0.003 | [8] 0.011 | [9] -0.108 | [10] 0.087 | [11] -0.005 | [12] -0.098 | [13] -0.063 | [14] 0.043 | [15] 0.024 | [16] -0.015 | [17] -0.001 | [18] 0.048 | [19] -0.036 | [20] 0.015

EXOC3 (UniProt O60645)
inactive: [1] -0.109 | [2] -0.293 | [3] 0.122 | [4] -0.052 | [5] -0.108 | [6] 0.003 | [7] 0.041 | [8] 0.076 | [9] 0.088 | [10] -0.321 | [11] -0.104 | [12] -0.137 | [13] -0.051 | [14] 0.002 | [15] 0.05 | [16] -0.058 | [17] 0.152 | [18] -0.064 | [19] 0.062 | [20] -0.01

EXOSC8 (UniProt Q96B26)
inactive: [1] 0.025 | [2] 0.088 | [3] -0.046 | [4] -0.04 | [5] 0.008 | [6] 0.051 | [7] -0.064 | [8] -0.001 | [9] -0.038 | [10] 0.057 | [11] 0.032 | [12] 0.051 | [13] 0.057 | [14] -0.03 | [15] 0.043 | [16] 0.014 | [17] -0.026 | [18] -0.055 | [19] -0.024 | [20] 0.013

FAH isoform 2 (UniProt P16930)
inactive: [1] 0.131 | [2] 0.057 | [3] 0 | [4] -0.027 | [5] -0.187 | [6] 0.128 | [7] -0.058 | [8] 0.058 | [9] -0.061 | [10] 0.019 | [11] 0.03 | [12] 0.001 | [13] 0.06 | [14] -0.032 | [15] 0.021 | [16] 0 | [17] -0.365 | [18] -0.128 | [19] 0.113 | [20] 0.054

2 entries picked at random from the list so far:
ERGIC3 isoform 3 (UniProt Q9Y282)
inactive: [1] -0.04 | [2] -0.025 | [3] -0.012 | [4] 0.006 | [5] 0.02 | [6] 0.033 | [7] -0.009 | [8] 0.012 | [9] -0.012 | [10] -0.14 | [11] 0.084 | [12] 0.027 | [13] -0.001 | [14] -0.039 | [15] -0.039 | [16] -0.003 | [17] -0.027 | [18] -0.02 | [19] -0.019 | [20] 0.011

ERBIN isoform 8 (UniProt Q96RT1)
inactive: [1] 0.007 | [2] 0.064 | [3] 0.083 | [4] -0.026 | [5] 0.002 | [6] -0.094 | [7] -0.003 | [8] 0.011 | [9] -0.108 | [10] 0.087 | [11] -0.005 | [12] -0.098 | [13] -0.063 | [14] 0.043 | [15] 0.024 | [16] -0.015 | [17] -0.001 | [18] 0.048 | [19] -0.036 | [20] 0.015

Further results follow:

FAHD2A (UniProt Q96GK7)
inactive: [1] 0.05 | [2] 0.064 | [3] -0.001 | [4] 0.015 | [5] 0.023 | [6] -0.016 | [7] 0.005 | [8] 0.006 | [9] -0.046 | [10] -0.004 | [11] 0.047 | [12] 0.019 | [13] -0.004 | [14] 0.011 | [15] 0.015 | [16] -0.04 | [17] -0.024 | [18] -0.026 | [19] -0.017 | [20] -0.006

EPN1 (UniProt Q9Y6I3)
inactive: [1] -0.023 | [2] -0.151 | [3] 0.094 | [4] -0.021 | [5] -0.019 | [6] -0.036 | [7] 0.039 | [8] 0.003 | [9] -0.032 | [10] -0.124 | [11] 0.033 | [12] -0.025 | [13] -0.06 | [14] -0.009 | [15] -0.035 | [16] -0.081 | [17] -0.014 | [18] -0.014 | [19] 0.052 | [20] 0.036

FABP5 (UniProt Q01469)
inactive: [1] -0.011 | [2] -0.041 | [3] 0.004 | [4] -0.001 | [5] 0.017 | [6] 0.021 | [7] 0.013 | [8] 0.061 | [9] 0.074 | [10] -0.074 | [11] 0.043 | [12] -0.009 | [13] -0.046 | [14] -0.029 | [15] 0.513 | [16] -0.055 | [17] -0.039 | [18] 0.037 | [19] -0.003 | [20] 0.02

EPCAM (UniProt P16422)
inactive: [1] -0.018 | [2] -0.014 | [3] 0.048 | [4] -0.04 | [5] -0.023 | [6] -0.101 | [7] 0.002 | [8] 0.002 | [9] -0.078 | [10] -0.05 | [11] 0.042 | [12] -0.006 | [13] -0.064 | [14] 0.025 | [15] -0.01 | [16] -0.112 | [17] -0.001 | [18] 0.006 | [19] 0.003 | [20] 0.024

ERLEC1 (UniProt Q96DZ1)
inactive: [1] -0.005 | [2] -0.042 | [3] -0.038 | [4] -0.018 | [5] -0.034 | [6] -0.013 | [7] -0.032 | [8] 0.001 | [9] 0.002 | [10] 0.025 | [11] 0.014 | [12] 0.035 | [13] -0.01 | [14] 0.018 | [15] 0.019 | [16] -0.026 | [17] -0.01 | [18] -0.046 | [19] 0.02 | [20] -0.016
